Laboratory results taken from PubChem BioAssay AID493014 (National Center for Advancing Translational Sciences (NCATS), 2011).
The list shows a part of the results. The main result of the screen is listed elsewhere. These columns were measured beside it and carry no call. The list favours compounds with an active or inconclusive main result. Words in brackets tell the shape of the fitted curve; partial curves, single points and poor fits give uncertain potencies.

Test: qHTS Assay to Find Inhibitors of Chronic Active B-Cell Receptor Signaling
Settings: ABC-DLBCL IkBa-CBG/CBR reporter, luminescence ratio (green luciferase fused to IkBa over red control in TMD8 lymphoma cells), 4 h
Summary of the method: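 TMD8 ABC-DLBCL cells carrying doxycycline-inducible green luciferase fused to IkappaBalpha plus unfused red luciferase were exposed to compounds (up to 46 uM) for 4 hrs at 37C. Activity came from the overlap-corrected green/red luminescence ratio.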

[1] = measured here: CBR red luminescence, cell number
[2] = measured here: IkBa-CBG green luminescence

SMILES | AC50 [1] | AC50 [2]
O=C1CCNc2ccc(-c3ccccc3)cc21 | 6.51 µM [rising, single point] | –
COc1ccc2[nH]c(O)c(N=NC(=O)Cc3cccs3)c2c1 | 35.5 µM [falling, single point] | –
Cc1cccc2cc(/C=N/NC(=O)[C@H]3C[C@@H]3c3ccccc3)c(Cl)nc12 | 3.16 µM [falling, single point] | –
O=C(NNC(=S)NCc1ccco1)c1ccc(Cl)s1 | 35.5 µM [falling, single point] | –
O=C(c1ccccc1)c1ccc2nc[nH]c2c1 | 29.1 µM [falling, single point] | –
CCCN(CCC)Cc1cc(=O)oc2cc3c(cc12)CCC3 | 17.8 µM [rising, single point] | –
O=C(c1cccnc1)N1N=C(C2CCCCC2)CC1(O)C(F)(F)F (stereo not drawn) | 10 µM [falling, partial curve] | –
CCOC(=O)c1c(C)oc2c1c(C(c1cccnc1)N1CCCCC1)c(O)c1ccccc12 (stereo not drawn) | 29.1 µM [falling, single point] | –
O/N=C(\c1ccc(Cl)cc1)c1ncc(C(F)(F)F)cc1Cl | 6.51 µM [rising, full curve, poor fit] | –
Cc1cccc(NC(=O)CN2CCN(C(=O)c3ccc(-c4nc5ccccc5s4)o3)CC2)c1C | 13 µM [rising, partial curve, poor fit] | –
O=C(Cc1cccc2ccccc12)Nc1ccc(OC(F)F)c(Cl)c1 | 8.2 µM [rising, partial curve, poor fit] | –
COc1cccc(-c2nc(N3CCCC3)c3ccccc3n2)c1O | 0.562 µM [falling, full curve, poor fit] | –
COCCNS(=O)(=O)c1ccc2c(c1)n(C)c(=O)n2C | 0.103 µM [falling, full curve] | –
Cc1ccc2nc3n(c(=O)c2c1)-c1cc(Cl)ccc1C(=O)NC3Cc1ccc(O)cc1 (stereo not drawn) | 10.3 µM [rising, partial curve, poor fit] | –
O=C1CCN(C(=O)/C=C/c2ccccc2)c2ccccc21 | 12.6 µM [rising, partial curve, poor fit] | –
Cc1nc2ccccn2c1C(=O)NNC(=S)Nc1ccc(Cl)cc1 | 8.2 µM [rising, partial curve, poor fit] | –

Entries of single compounds, quoted from the list.
`O=C(Cc1cccc2ccccc12)Nc1ccc(OC(F)F)c(Cl)c1` as listed: AC50 [1]: 8.2 µM [rising, partial curve, poor fit]
`COCCNS(=O)(=O)c1ccc2c(c1)n(C)c(=O)n2C` as listed: AC50 [1]: 0.103 µM [falling, full curve]

(list continues)

SMILES | AC50 [1] | AC50 [2]
COCc1cc(Sc2ccc(Cl)cc2)nc(C)n1 | 28.2 µM [rising, single point] | –
COc1ccccc1N1CCN(C(=O)Cn2nnc(-c3ccncc3)n2)CC1 | 35.5 µM [rising, single point] | –
c1ccc(N2CCN(c3ccccc3)C2c2cccs2)cc1 | 14.6 µM [falling, partial curve, poor fit] | –
CCOCCCn1c(=NC(=O)c2cccs2)c(C#N)cc2c(=O)n3ccccc3nc21 | 12.6 µM [falling, single point] | –
COc1ccc(N(CC(=O)NC2CCCC2)C(=O)Cn2nnc(-c3ccc(OC)c(OC)c3)n2)c(OC)c1 | 0.631 µM [rising, partial curve, poor fit] | 0.631 µM [falling, partial curve, poor fit]
Cc1sc(-c2ccccn2)nc1OC(=O)c1ccc(F)cc1F | 8.91 µM [falling, partial curve, poor fit] | –
COc1cc(OC)cc(-c2nc3cc(C)ccc3o2)c1 | 1.46 µM [rising, full curve, poor fit] | –
CC(C)C1N=C(c2ccc3c(c2)OCO3)CC(c2ccccc2O)N1 (stereo not drawn) | 29.1 µM [falling, single point] | –
CCOC(=O)C1=C(C)NC(C)=C(C(=O)OCC)C1/C=C/c1ccccc1 | – | 11.6 µM [falling, partial curve]
COc1ccc(C(=O)Nc2ccccc2)cc1NC(=O)c1cccs1 | 1.78 µM [falling, full curve, poor fit] | –
CC(C)CC(C(=O)Nc1oc(-c2ccco2)c(-c2ccco2)c1C#N)N1C(=O)c2ccccc2C1=O (stereo not drawn) | 4.47 µM [falling, full curve] | –
CC1(c2ccccc2)NC(=S)N2C1NC(=S)N2c1ccccc1 (stereo not drawn) | 3.66 µM [rising, single point] | –
O=S(=O)(NCCN1CCOCC1)c1ccc(-c2ccc(S(=O)(=O)NCCN3CCOCC3)cc2)cc1 | 3.16 µM [rising, partial curve, poor fit] | –
COC(=O)c1cc(NC(=O)/C=C/c2ccc3c(c2)OCO3)cc(C(=O)OC)c1 | 6.31 µM [falling, single point] | –
COc1ccccc1-c1nc(-c2ccc(C)nc2OC)no1 | 20.6 µM [rising, single point] | –
CCN(Cc1ccc(OC)c(COC)c1)CC1CCCN(CCc2cccc(OC)c2)C1 (stereo not drawn) | 0.112 µM [rising, full curve, poor fit] | –
